Substitutions are numbered along the chain they refer to. No constants are given. Whether binding was seen depends on the method and setting. Some results given as binding are weak or reduced against the parent protein; the word gives no strength.
B1: B30嵌合抗体 (antibody, human IgG1, kappa, V domains shown)
VH: QVQLQQSGPELVKPGASVRMSCKAAGYTFTSYLIHWVKQRPGQDLEWIGYINPYNDGTKYNEKFKDKATLTSDKSSSTAYMELSSLTSEDSAVYYCARSDVYYGVRFAYWGQGTLVTVSA
VL: DIVLTQSPVIMSASPGEKVTMTCSASSSISYMYWYQQKPGSSPRLLIYDTSILASGVPVRFSGSGSGTSYSLTISRMEAEDAATYYCQQWSSYPFTFGSGTKLEIKR
B2: A12嵌合抗体 (antibody, human IgG1, kappa, V domains shown)
VH: B1 VH with F29I, I34M
VL: DIVLTQSPAIMSASPGEKVTMTCSASSSVSYMHWYQQKSGTSPKRWIYDTSKLASGVPARFSGSGSGTSYSLTISSMEAEDAAIYYCQQWSSNPPTFGAGTKLELKR
B3: B22嵌合抗体 (antibody, human IgG1, kappa, V domains shown)
VH: QVQLQQPGAALVKPGASVKLSCKASGYTFTNYWIQWMKQRPGQGLEWIGEINPSNGRTDYNEKFKNRATLTVDNSSTTAYMQLSSLTSEDSAVYYCANYRPGYWGQGTSVTVSS
VL: DIVMTQSQKFMSTSVGDRVSVTCKASQNVGTNVAWFQQKPGQSPKPLIYLASYRYSGVPDRFTGSGSGTDFTLTISNVQSEDLAEYFCQQYNSYPLTFGGGTNLEIKR

By UniProt entry, the sequences of proteins in these tests, tags left out. Where a name states a change or a piece, a line headed by the entry shows the natural chain unless it says otherwise. Chains listed by the source or under a name are the forms on record and can include a tag or linker. Residues count along the entry.
ROR2胞外段蛋白 (Q01974, residues 34-403): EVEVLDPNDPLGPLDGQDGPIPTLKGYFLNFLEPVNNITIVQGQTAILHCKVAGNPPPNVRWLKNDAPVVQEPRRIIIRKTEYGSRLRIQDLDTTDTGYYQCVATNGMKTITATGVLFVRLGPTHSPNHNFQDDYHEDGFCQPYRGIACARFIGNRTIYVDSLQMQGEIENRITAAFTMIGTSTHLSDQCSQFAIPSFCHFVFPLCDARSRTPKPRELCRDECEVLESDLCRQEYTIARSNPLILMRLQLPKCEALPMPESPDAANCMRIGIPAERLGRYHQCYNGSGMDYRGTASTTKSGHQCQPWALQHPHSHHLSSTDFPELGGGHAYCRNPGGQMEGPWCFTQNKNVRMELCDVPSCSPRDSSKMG
ROR2-Flag (Q01974, form named): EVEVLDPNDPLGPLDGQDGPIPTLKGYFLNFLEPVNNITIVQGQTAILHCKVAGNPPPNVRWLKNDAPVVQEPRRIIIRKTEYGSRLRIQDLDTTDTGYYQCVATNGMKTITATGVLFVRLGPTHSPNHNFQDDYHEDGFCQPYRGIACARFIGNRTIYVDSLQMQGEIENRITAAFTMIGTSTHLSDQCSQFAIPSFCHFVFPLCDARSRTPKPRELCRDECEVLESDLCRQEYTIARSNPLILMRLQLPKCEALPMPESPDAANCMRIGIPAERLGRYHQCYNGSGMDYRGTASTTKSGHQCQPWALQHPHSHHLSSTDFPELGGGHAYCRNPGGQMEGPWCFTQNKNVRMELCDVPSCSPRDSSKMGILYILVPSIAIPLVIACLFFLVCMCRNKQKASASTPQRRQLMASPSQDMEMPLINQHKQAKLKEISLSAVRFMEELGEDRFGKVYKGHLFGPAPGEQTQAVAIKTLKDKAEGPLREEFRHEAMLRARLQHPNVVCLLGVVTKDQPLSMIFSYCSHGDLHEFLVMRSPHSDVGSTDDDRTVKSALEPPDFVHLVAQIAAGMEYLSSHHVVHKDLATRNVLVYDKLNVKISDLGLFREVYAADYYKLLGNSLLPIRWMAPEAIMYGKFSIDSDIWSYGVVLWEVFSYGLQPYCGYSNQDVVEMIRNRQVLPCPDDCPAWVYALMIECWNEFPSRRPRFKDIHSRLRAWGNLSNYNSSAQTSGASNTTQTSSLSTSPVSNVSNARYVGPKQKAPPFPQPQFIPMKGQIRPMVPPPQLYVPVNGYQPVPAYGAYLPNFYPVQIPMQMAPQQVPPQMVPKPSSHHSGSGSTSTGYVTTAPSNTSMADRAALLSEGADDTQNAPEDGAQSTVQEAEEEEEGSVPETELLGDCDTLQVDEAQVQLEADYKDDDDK

Biological target: ROR2-Flag (UniProt Q01974)
Experiment: immunoprecipitation and immunoblot, 293T cells transfected with pcDNA-ROR2-Flag

binding, binds:
B1
B2
B3

Biological target: ROR2胞外段蛋白 (UniProt Q01974)
Experiment: ELISA, ROR2 extracellular segment protein coated on plate, OD450

binding, binds:
B1
B2
B3

— CN111378040A
